Values from PubChem BioAssay AID1224830 (NIAID, 2016)
Purpose: 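Genes whose knock-down alters the TNF-alpha reporter response to LPS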 (primary screen). System: human THP-1 monocytic leukaemia cells, TNF dual-luciferase reporter clone, PMA-differentiated to macrophage-like cells. Reagents: siRNA pool against human genes, 50 nM. Time to read-out: LPS for 4 h, given about 3 days after siRNA transfection. Challenge: bacterial LPS (TLR4 ligand), 10 ng/ml. Measurement: 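Ratio of firefly to renilla light, scaled to the plate median and expressed as a robust z-score per replicate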. Reading the numbers: TNF reporter robust z-score: higher = stronger TNF reporter response to LPS. Rule for the call: 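a well is active when its z-score exceeds 2.8 or falls below -1.5; control wells carry no call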.
Shown is an unselected part of about 18,000 deposited reagents. About 2,900 of all reagents (16%) were called active. 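Calls are made per well; low scores hint the gene aids the LPS response, high scores that it dampens it.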 Repeated entries: four replicate wells of each siRNA pool. No sequences are given here.

The opening 7 records as a preview:
| target gene | TNF reporter robust z-score | Outcome |
| --- | --- | --- |
| MOSPD1 | 1.75 | inactive |
| MOSPD1 | 0.51 | inactive |
| MOSPD1 | 1.27 | inactive |
| MOSPD1 | 1.41 | inactive |
| BTG3 | 0.43 | inactive |
| BTG3 | 4.49 | active |
| BTG3 | 1.52 | inactive |

The list itself, repeating the preview:
| target gene | TNF reporter robust z-score | Outcome |
| --- | --- | --- |
| MOSPD1 | 1.75 | inactive |
| MOSPD1 | 0.51 | inactive |
| MOSPD1 | 1.27 | inactive |
| MOSPD1 | 1.41 | inactive |
| BTG3 | 0.43 | inactive |
| BTG3 | 4.49 | active |
| BTG3 | 1.52 | inactive |
| BTG3 | 3.01 | active |
| PDZD4 | -1.5 | inactive |
| PDZD4 | -1.88 | active |
| PDZD4 | -1.96 | active |
| PDZD4 | -1.9 | active |
| RPL11 | -0.91 | inactive |
| RPL11 | -0.13 | inactive |
| RPL11 | -0.63 | inactive |
| RPL11 | -0.37 | inactive |
| MYBPC2 | -0.83 | inactive |
| MYBPC2 | -0.54 | inactive |
| MYBPC2 | 0.44 | inactive |
| MYBPC2 | 0.86 | inactive |
| TRMT10A | 1.64 | inactive |
| TRMT10A | 0.2 | inactive |
| TRMT10A | -0.01 | inactive |
| TRMT10A | -0.63 | inactive |
| DRD3 | -0.52 | inactive |
| DRD3 | -1.17 | inactive |
| DRD3 | -1.05 | inactive |
| DRD3 | -0.09 | inactive |
| CHST8 | 0.32 | inactive |
| CHST8 | 0.66 | inactive |
| CHST8 | -0.16 | inactive |
| CHST8 | 0.21 | inactive |
| VPS53 | 0.29 | inactive |
| VPS53 | -1.2 | inactive |
| VPS53 | 0.76 | inactive |
| VPS53 | 0.36 | inactive |
| AP2A1 | -1.22 | inactive |
| AP2A1 | -0.3 | inactive |
| AP2A1 | -0.03 | inactive |
| RBX1 | 0.75 | inactive |
| RBX1 | 1.1 | inactive |
| RBX1 | 4.58 | active |
| RBX1 | 2.46 | inactive |
| PRPF39 | -0.21 | inactive |
| PRPF39 | -0.05 | inactive |
| PRPF39 | -0.24 | inactive |
| PRPF39 | -0.19 | inactive |
| TRIM77 | -0.38 | inactive |
| TRIM77 | -0.26 | inactive |
| TRIM77 | 0.26 | inactive |
| TRIM77 | -1.04 | inactive |
| SERPINA1 | -1.74 | active |
| SERPINA1 | 1.54 | inactive |
| SERPINA1 | -0.32 | inactive |
| SERPINA1 | 1.39 | inactive |
| ARHGDIA | -0.15 | inactive |
| ARHGDIA | 1.16 | inactive |
| ARHGDIA | 0.37 | inactive |
| ARHGDIA | 0.19 | inactive |
| TCEAL8 | 2.52 | inactive |
| TCEAL8 | 1.51 | inactive |
| TCEAL8 | 1.35 | inactive |
| TCEAL8 | 2.96 | active |
| KMT5C | -1.04 | inactive |
| KMT5C | 0.12 | inactive |
| KMT5C | -0.53 | inactive |
| KMT5C | 1.43 | inactive |
| CKAP5 | 0.85 | inactive |
| CKAP5 | 0.2 | inactive |
| CKAP5 | 1.18 | inactive |
| CKAP5 | 3.3 | active |
| KIN | 3.84 | active |
| KIN | 2.06 | inactive |
| KIN | 3.87 | active |
| KIN | 5.97 | active |
| ERGIC3 | -1.41 | inactive |
| ERGIC3 | -0.14 | inactive |
| ERGIC3 | -0.08 | inactive |
| ERGIC3 | 0.84 | inactive |
| ZNF746 | 0.76 | inactive |
| ZNF746 | -0.85 | inactive |
| ZNF746 | -0.83 | inactive |
| ZNF746 | 1.21 | inactive |
| NEIL2 | -0.67 | inactive |
| NEIL2 | -1.96 | active |
| NEIL2 | -0.15 | inactive |
| NEIL2 | 0.24 | inactive |
| SOCS5 | 0.17 | inactive |
| SOCS5 | -0.22 | inactive |
| SOCS5 | -0.31 | inactive |
| SOCS5 | -0.08 | inactive |
| RIOX1 | 1.32 | inactive |
| RIOX1 | -0.08 | inactive |
| RIOX1 | 0.68 | inactive |
| RIOX1 | 0.62 | inactive |
| HTR1D | 0.61 | inactive |
| HTR1D | 0.93 | inactive |
| HTR1D | 0.67 | inactive |
| HTR1D | 1.33 | inactive |
| OLFM3 | 2.08 | inactive |
| OLFM3 | 1.63 | inactive |
| OLFM3 | -0.13 | inactive |
| OLFM3 | 0.13 | inactive |
| CNOT9 | -0.12 | inactive |
| CNOT9 | 0.92 | inactive |
| CNOT9 | 1.25 | inactive |
| CNOT9 | 7.6 | active |
| LAPTM4B | -0.99 | inactive |
| LAPTM4B | -0.03 | inactive |
| LAPTM4B | -1.01 | inactive |
| LAPTM4B | -1.09 | inactive |
